Experimental data: PubChem BioAssay AID662 (National Center for Advancing Translational Sciences (NCATS), 2007)
Values joined by “and” are separate entries in the source; they are usually repeats but may differ in a detail not shown here. Equal entries are not always repeated. The list shows a part of the results. The main result of the screen is listed elsewhere. These columns were measured beside it and carry no call. The list favours compounds with an active or inconclusive main result. Words in brackets tell the shape of the fitted curve; partial curves, single points and poor fits give uncertain potencies.

Experiment: Cell signaling CRE-BLA (Fsk stim)
Settings: CHO CRE-bla reporter (cAMP response element driving beta-lactamase), forskolin EC10, beta-lactamase ratio; measured here: 460 nm blue channel
Outline: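 Modulation of forskolin-driven signalling is measured in CHO cells carrying a CRE-controlled beta-lactamase reporter. Cells are stimulated with EC10 NKH 477 in the presence of titrated compound for 3 h at 37 °C, then loaded with CCF4 for 2 h at room temperature.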

Row | Structure (SMILES) | AC50
1 | Cc1nn(Cc2ccccc2Cl)c(C)c1NC(=O)C1C2CCC(O2)C1C(=O)O (stereo not given) | 10 µM [rising, partial curve, poor fit]
2 | O=C1CN(C(=O)CC2c3ccccc3-c3ccccc32)CC(=O)N1 | 31.6 µM [falling, partial curve]
3 | C=CCn1cc(C(=O)OC)c(=O)c2cc(S(=O)(=O)N3CCC(C)CC3)ccc21 | 25.1 µM [rising, single point]
4 | O=C1C2CC=C(Cl)CC2C(=O)N1CN(Cc1ccco1)CN1C(=O)C2CC=C(Cl)CC2C1=O (stereo not given) | 3.16 µM [rising, single point]
5 | COc1ccccc1C(=O)Nc1cc(-c2nn3c(C)nnc3s2)ccc1C | 10 µM [rising, partial curve]
6 | COc1ccc(S(=O)(=O)C(C#N)c2nc3ccccc3nc2N2CCC(C)CC2)cc1 (stereo not given) | 10 µM [rising, partial curve]
7 | Nc1ncnc2c1c(-c1ccc(Oc3ccccc3)cc1)cn2C1CCCC1 | 25.1 µM [falling, partial curve]
8 | Cc1nc2c3c(-c4ccccc4)c(-c4ccccc4)oc3ncn2n1 | 20 µM [rising, single point]
9 | COc1ccccc1-c1cc(Nc2ccc(F)cc2)ncn1 | 5.01 µM [rising, single point]
10 | O=C(O)CCC(=O)N1CCN(c2nc3ccccc3s2)CC1 | 0.00316 µM [falling, full curve, poor fit]
11 | CCCS(=O)(=O)N1CCCC(C(=O)N2CCOCC2)C1 (stereo not given) | 25.1 µM [rising, single point]
12 | CCc1nn2c(N3CCOCC3)cc(C)nc2c1-c1ccc(F)cc1 | 2.51 µM [rising, single point]
13 | Cc1[nH]nc2nc(SCC(=O)NCC3CCCO3)n(-c3ccc(Br)cc3)c(=N)c12 (stereo not given) | 15.8 µM [rising, partial curve]
14 | N#Cc1ccccc1NC(=O)CSc1nnc(-c2ccccc2)n1-c1ccccc1 | 2.51 µM [falling, partial curve, poor fit]
15 | COC(=O)CCSCc1cn2cc(Cl)ccc2n1 | 12.6 µM [falling, single point]
16 | CCOC(=O)N1CCC(NS(=O)(=O)c2ccc3c(c2)C(C)(C)C(=O)N3C)CC1 | 0.251 µM [rising, full curve, poor fit]
17 | Cc1cc(=O)[nH]c(-n2nc(C)cc2C)n1 | 5.01 µM [falling, single point]
18 | CCOC(=O)CNC(=O)Cn1cnc2c(nnn2-c2cccc(Cl)c2)c1=O | 0.00398 µM [falling, full curve]
19 | CCCCCCN(C(=O)CCCCCN1C(=O)NC(c2ccccc2-c2ccccc2)C(C(=O)OCc2ccccc2)=C1C)C(C(=O)NCCCC)c1ccc(OCC(=O)OC)c(C(=O)OC)c1 (stereo not given) | 25.1 µM [falling, single point]
20 | COc1ccccc1CNc1ncnc2ccc(-c3cccc(C#N)c3)cc12 | 2 µM [rising, full curve]
21 | CCOc1ccccc1-c1nc(C(N)=O)c2[nH]c(=O)n(-c3ccccc3)c2n1 | 10 µM [rising, partial curve]
22 | N#Cc1c(N)nc2c(c1-c1ccncc1)CCCCCC2 | 2.51 µM [rising, full curve]

Row | Structure (SMILES) | AC50
23 | CC(C)OCCCN1C(=O)c2[nH]nc(-c3ccccc3O)c2C1c1cccc(Cl)c1 (stereo not given) | 6.31 µM [falling, partial curve]
24 | Cc1nnc2ccc(Oc3ccc(-c4ccccc4)cc3)nn12 | 7.94 µM [rising, partial curve]
25 | c1cn(-c2ncnc3sc4c(c23)CCCC4)cn1 | 3.16 µM [falling, partial curve]
26 | COc1ccc(N2CCN(c3nc4c(c(=O)n(C)c(=O)n4C)n3Cc3ccccc3)CC2)cc1 | 12.6 µM [rising, single point]
27 | O=C(C1CC1)N1CCc2cc(S(=O)(=O)N3CCCc4ccccc43)ccc21 | 2 µM [rising, full curve]
28 | N#CC(C#N)=c1ccc2c(c1)NC1(CCCCC1)N=2 | 10 µM [falling, partial curve, poor fit]
29 | COc1ccc(-c2cc(C(F)(F)F)nc(N3CCN(Cc4ccccc4)CC3)n2)cc1OC | 5.01 µM [rising, partial curve]
30 | CCc1nc(NCCc2ccccn2)c2nnn(Cc3ccccc3F)c2n1 | 6.31 µM [rising, partial curve]
31 | COCCNC(=O)COC(=O)CSCc1nc2ccccc2s1 | 1 µM [falling, partial curve, poor fit]
32 | CCOC(=O)C1=C(C)N(c2ccccc2)C(=O)C1CC(=O)O (stereo not given) | 7.94 µM [falling, partial curve]
33 | O=C(CSc1ncnc2sc3c(c12)CCCC3)c1ccco1 | 6.31 µM [rising, single point]
34 | CC1CN(Cc2nc3c(c(=O)[nH]c(=O)n3C)n2CCCc2ccccc2)CC(C)O1 (stereo not given) | 3.16 µM [rising, single point]
35 | COc1ccc(C(=O)N2CCc3cc(OC)c(OC)cc3C2)cc1OC | 25.1 µM [rising, single point]
36 | CCCc1cc(C(=O)N2CCN(C(c3ccccc3)c3ccccc3)CC2)no1 | 10 µM [falling, single point]
37 | CC(C)c1cccc2nc3c(c([Si](C)(C)C)c12)Cn1c-3cccc1=O | 12.6 µM [rising, partial curve]
38 | O=C(CCCSc1nc(-c2ccco2)cc(C(F)(F)F)n1)Nc1ccc2c(c1)OCO2 | 12.6 µM [rising, single point]
39 | O=C(N1CCCCCC1)N1CCN(C(=O)N2CCCCC2)CC1 | 0.158 µM [rising, full curve, poor fit]
40 | CSc1nccn1CC(=O)Nc1ccc(F)cc1 | 0.0158 µM [falling, partial curve, poor fit]
41 | O=C(Nc1ccc2oc(-c3ccccc3Cl)nc2c1)c1cncc(Br)c1 | 2.51 µM [rising, full curve]
42 | N#Cc1cc2c(nc1SCC(=O)Nc1sc3c(c1C#N)CCC3)CCCCC2 | 12.6 µM [rising, partial curve]
43 | Cc1nc2nc(C)c(CCC(=O)NCCCN3CCN(c4cccc(Cl)c4)CC3)c(C)n2n1 | 2 µM [falling, full curve]
44 | COC(=O)[C@@]1(Cc2ccccc2)[C@H]2c3cc(C(=O)N(C)C)n(Cc4ccsc4Br)c3C[C@H]2CN1C(=O)c1ccccc1 | 12.6 µM [rising, partial curve, poor fit]

Entries shown so far containing bromine (three):
Row | Structure (SMILES) | AC50
13 | Cc1[nH]nc2nc(SCC(=O)NCC3CCCO3)n(-c3ccc(Br)cc3)c(=N)c12 (stereo not given) | 15.8 µM [rising, partial curve]
41 | O=C(Nc1ccc2oc(-c3ccccc3Cl)nc2c1)c1cncc(Br)c1 | 2.51 µM [rising, full curve]
44 | COC(=O)[C@@]1(Cc2ccccc2)[C@H]2c3cc(C(=O)N(C)C)n(Cc4ccsc4Br)c3C[C@H]2CN1C(=O)c1ccccc1 | 12.6 µM [rising, partial curve, poor fit]

Carrying on.

Row | Structure (SMILES) | AC50
45 | CCCCn1c(-c2ccsc2)nc2c1c(=O)[nH]c(=O)n2CCC | 10 µM [rising, partial curve]
46 | COC(=O)C1=CN(C(C)C)C=C(C(=O)OC)C1c1cccc(OC)c1 | 10 µM [rising, partial curve]
47 | CCOC(=O)C1Cn2c(nc3c(c2=O)C2(CCCC2)Cc2ccccc2-3)S1 (stereo not given) | 1 µM [rising, partial curve]
48 | Cc1sc2nc(SCC(=O)N3CCCC3)[nH]c(=O)c2c1C | 10 µM [rising, partial curve]
49 | Nc1nc2ccc(Cl)cc2c2nc(-c3ccco3)nn12 | 6.31 µM [rising, partial curve] and 158 nM [rising, full curve]
50 | Cc1sc2nc(CN(C(=O)c3cccs3)C3CCCC3)[nH]c(=O)c2c1C | 10 µM [rising, partial curve]
51 | Cc1cc2ncn(CCOc3ccccc3C#N)c2cc1C | 0.316 µM [rising, partial curve, poor fit]
52 | Cc1ccc(C2CC(C(F)(F)F)n3nc(C(=O)NCCN4CCOCC4)cc3N2)cc1 (stereo not given) | 0.0126 µM [falling, partial curve, poor fit]
53 | O=c1[nH]c(-c2ccccc2)c(-c2ccccc2)[nH]1 | 0.126 µM [rising, full curve]
54 | CCOC(=O)c1ccc(Oc2nc(SC)nc(N(C)C)n2)cc1 | 0.00316 µM [falling, full curve, poor fit]
55 | COc1ccc(CNc2nc(-c3ccc(N(C)C)cc3)nc3ccccc23)c(OC)c1 | 10 µM [rising, partial curve]
56 | COc1ccc(Nc2ncc3c(n2)CC(c2ccc(OC)cc2)CC3=O)cc1 (stereo not given) | 10 µM [rising, single point]
57 | COC(=O)[C@@]1(Cc2ccc(OC)cc2)[C@H]2c3cc(C(=O)N(C)C)n(Cc4ccccn4)c3C[C@H]2CN1C(=O)c1ccccc1 | 6.31 µM [rising, partial curve]
58 | COCCNC(=O)CSc1nc(-c2ccc(OC)c(OC)c2)cc(C(F)(F)F)n1 | 6.31 µM [rising, partial curve]
59 | COc1ccc(-c2nc(C#N)c(N3CCOCC3)o2)cc1OC | 0.251 µM [rising, single point]
60 | CCOC(=O)CS(=O)(=O)c1nc(-c2ccc(F)cc2)cc(C(F)(F)F)n1 | 10 µM [falling, partial curve]
61 | O=C(c1ccc(Cl)cc1)c1ccccc1C(=O)N1CCOCC1 | 12.6 µM [falling, partial curve, poor fit]
62 | O=C(CN1C(=O)COc2ccccc21)N1CCN(c2ccccc2F)CC1 | 10 µM [falling, partial curve, poor fit]
63 | CCCNC(=O)c1c(N)n(-c2cc(OC)cc(OC)c2)c2nc3ccccc3nc12 | 12.6 µM [rising, partial curve]
64 | N#CCSc1nc2ccccc2c(=O)n1-c1ccccc1 | 12.6 µM [falling, partial curve]
65 | CCc1nc(SCc2ccccn2)c2c(=O)n(C)c(=O)n(C)c2n1 | 2.51 µM [rising, full curve]

Individual results from the list.
AC50 with COCCNC(=O)CSc1nc(-c2ccc(OC)c(OC)c2)cc(C(F)(F)F)n1 reads 6.31 µM [rising, partial curve]
AC50 with Cc1cc(=O)[nH]c(-n2nc(C)cc2C)n1 reads 5.01 µM [falling, single point]
